{
  "source": "paper PMC3621618",
  "about": "“Comparative measurement of CNP and NT-proCNP in human blood samples: a methodological evaluation” (Journal of Negative Results in Biomedicine, 2013)",
  "key": {"[1]": {"assay": "CNP concentration in blood samples, CNP-22 EIA Kit (Phoenix)", "set-up": "species or system human", "conditions": "mean ± SD"}, "[2]": {"conditions": "EDTA, RIA, cited from earlier work"}, "[3]": {"conditions": "ELISA, mean ± SD, cited from earlier work; for CNP (pg/ml) Plasma: EDTA"}},
  "note": "Like-named read-outs stand apart in the source and are kept apart here. Marks after values point to notes of the source that are not given here.",
  "data": [
    {"substance": "C-type natriuretic peptide [CNP]", "values": [
      {"measurement": "baseline concentration of CNP in full blood samples", "setting": "[1]; 12 healthy male volunteers, fasting, Potassium-EDTA full blood sample, immediately centrifuged, CNP-22 EIA", "result": "0.991 ± 0.489", "unit": "ng/mL"},
      {"measurement": "baseline concentration of CNP in serum", "setting": "[1]; 12 healthy male volunteers, fasting, serum (Kaolin clotting activator), immediately centrifuged, CNP-22 EIA", "result": "0.997 ± 0.379", "unit": "ng/mL"},
      {"measurement": "baseline concentration of CNP in plasma", "setting": "[1]; 12 healthy male volunteers, fasting, sodium-citrate plasma, immediately centrifuged, CNP-22 EIA", "result": "1.933 ± 0.699", "unit": "ng/mL"},
      {"measurement": "CNP (pg/ml) Serum", "setting": "[1]; present study, healthy, age 29 ± 2, n = 12, ELISA", "result": "997 ± 379^E pg/ml"},
      {"measurement": "CNP (pg/ml) Plasma", "setting": "[1]; present study, healthy, n = 12, sodium-citrate anticoagulated, ELISA", "result": "1933 ± 699", "unit": "°^E pg/ml"},
      {"measurement": "CNP (pg/ml) Plasma", "setting": "[2]; ILVD (idiopathic left ventricle dysfunction), n = 51, mean ± SD", "result": "7.0 ± 0.9*^R pg/ml"},
      {"measurement": "CNP (pg/ml) Plasma", "setting": "[2]; cardiovascular disease, n = 120, arterial blood sample", "result": "1.43*^R,a pg/ml"},
      {"measurement": "CNP (pg/ml) Plasma", "setting": "[2]; childrens, age 1-12 years, n = 32, mean ± SD", "result": "13.6 ± 2.3*^R pg/ml"},
      {"measurement": "CNP (pg/ml) Plasma", "setting": "[2]; diabetes, n = 19, mean ± SD", "result": "8.70 ± 1.62*^R pg/ml"},
      {"measurement": "CNP (pg/ml) Plasma", "setting": "[2]; healthy adults, age 64 ± 1, n = 32, mean ± SD", "result": "7.4 ± 1.0*^R pg/ml"},
      {"measurement": "CNP (pg/ml) Plasma", "setting": "[2]; healthy, age 45 ± 6, n = 11, mean ± SD", "result": "4.2 ± 0.4*^R pg/ml"},
      {"measurement": "CNP (pg/ml) Plasma", "setting": "[2]; healthy, age 61 ± 2, n = 21, mean ± SD", "result": "2.7 ± 0.2*^R pg/ml"},
      {"measurement": "CNP (pg/ml) Plasma", "setting": "[2]; healthy, age 61 ± 2, n = 60, mean ± SD", "result": "2.5 ± 0.12*^R pg/ml"},
      {"measurement": "CNP (pg/ml) Plasma", "setting": "[2]; healthy, age 61 ± 2, n = 73, mean ± SD", "result": "2.35 ± 0.11*^R pg/ml"},
      {"measurement": "CNP (pg/ml) Plasma", "setting": "[2]; heart failure, n = 130, mean ± SD", "result": "7.86 ± 0.41*^R pg/ml"},
      {"measurement": "CNP (pg/ml) Plasma", "setting": "[2]; infants, age 1-12 m, n = 22, mean ± SD", "result": "15.4 ± 2.7*^R pg/ml"},
      {"measurement": "CNP (pg/ml) Plasma", "setting": "[2]; liver cirrhosis, RI (renal insufficiency), n = 20, mean ± SD", "result": "2.7 ± 0.4*^R pg/ml"},
      {"measurement": "CNP (pg/ml) Plasma", "setting": "[2]; liver cirrhosis, n = 24, mean ± SD", "result": "4.97 ± 0.55*^R pg/ml"},
      {"measurement": "CNP (pg/ml) Plasma", "setting": "[2]; liver cirrhosis, no RI, n = 20, mean ± SD", "result": "3.0 ± 0.2*^R pg/ml"},
      {"measurement": "CNP (pg/ml) Plasma", "setting": "[2]; newborns, age 0-3d, n = 41, mean ± SD", "result": "11.6 ± 2.1*^R pg/ml"},
      {"measurement": "CNP (pg/ml) Plasma", "setting": "[2]; newborns, age 4-30d, n = 24, mean ± SD", "result": "16.4 ± 3.7*^R pg/ml"},
      {"measurement": "CNP (pg/ml) Serum", "setting": "[3]; Behcet, active, n = 28", "result": "490 ± 120^E pg/ml"},
      {"measurement": "CNP (pg/ml) Serum", "setting": "[3]; Behcet, inactive, n = 25", "result": "650 ± 200^E pg/ml"},
      {"measurement": "CNP (pg/ml) Plasma", "setting": "[3]; Hyperlipidemia, n = 44", "result": "4100 ± 5800*^E pg/ml"},
      {"measurement": "CNP (pg/ml) Plasma", "setting": "[3]; healthy controls, matched, n = 20", "result": "5700 ± 3300*^E pg/ml"},
      {"measurement": "CNP (pg/ml) Serum", "setting": "[3]; healthy, age 34 ± 6, n = 26", "result": "800 ± 270^E pg/ml"}
    ]}
  ]
}
